For part of these data: No signal at the amounts used counts as a negative. For part of these data: At least one verdict was read from the data and is not stated in words by the source. For part of these data: Tags and fusion partners may be left off the protein sequences shown. For part of these data: Weaker means in comparison with the reference protein, sequence or condition of that experiment.
Tests used:
[1] = biological target: T1, MatP4A K71A,Q72A,R75A,R77A (Escherichia coli) (UniProt P0A8N0); experiment: EMSA (native PAGE); settings: 1 mM Mg2+, Native PAGE: 50 mM HEPES pH 7.5, 100 mM NaCl, 1 mM MgCl2, 1 mM DTT, 10% glycerol, on ice 30 min, FCS: 20 mM Tris-HCl pH 7.5, 50 mM NaCl, 0.3 mg/mL BSA, 2 mM DTT, recombinant protein, residues 1-132, protein details: C-terminal 6xHis
T1 sequence (looked up): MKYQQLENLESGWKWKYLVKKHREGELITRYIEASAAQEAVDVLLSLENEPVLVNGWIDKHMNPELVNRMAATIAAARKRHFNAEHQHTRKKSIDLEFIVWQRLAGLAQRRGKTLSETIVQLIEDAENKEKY

[2] = biological target: T2, MukB long hinge (LH) (Escherichia coli) (UniProt P22523); experiment: native MS; settings: text says 50 bp DNA without naming which fragment; Native PAGE: 50 mM HEPES pH 7.5, 100 mM NaCl, 1 mM MgCl2, 1 mM DTT, 10% glycerol, on ice 30 min; FCS: 20 mM Tris-HCl pH 7.5, 50 mM NaCl, 0.3 mg/mL BSA, 2 mM DTT; recombinant protein; residues 568-863
T2 sequence (looked up): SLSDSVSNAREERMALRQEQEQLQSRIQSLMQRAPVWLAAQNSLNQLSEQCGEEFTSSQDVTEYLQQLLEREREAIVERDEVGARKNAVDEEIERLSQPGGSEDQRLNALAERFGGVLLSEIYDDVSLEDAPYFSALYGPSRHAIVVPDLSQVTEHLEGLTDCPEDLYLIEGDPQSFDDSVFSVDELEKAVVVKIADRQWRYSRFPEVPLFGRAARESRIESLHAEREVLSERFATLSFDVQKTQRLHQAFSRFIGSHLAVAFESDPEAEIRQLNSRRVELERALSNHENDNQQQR

[3] = tested on: MukB long hinge (LH) + MatP (MatPΔ18C) + ParC; experiment: native MS; settings: no LH2-MatP2(-matS)-ParC2 complex; Native PAGE: 50 mM HEPES pH 7.5, 100 mM NaCl, 1 mM MgCl2, 1 mM DTT, 10% glycerol, on ice 30 min; FCS: 20 mM Tris-HCl pH 7.5, 50 mM NaCl, 0.3 mg/mL BSA, 2 mM DTT; recombinant protein
[4] = tested on: MukB long hinge (LH) + MatP (MatPΔ18C); experiment: native MS; settings: no ternary complex, binary MatP-matS and LH-MatP seen; Native PAGE: 50 mM HEPES pH 7.5, 100 mM NaCl, 1 mM MgCl2, 1 mM DTT, 10% glycerol, on ice 30 min; FCS: 20 mM Tris-HCl pH 7.5, 50 mM NaCl, 0.3 mg/mL BSA, 2 mM DTT; recombinant protein
[5] = tested on: MukB long hinge (LH) + MatP (MatPΔ18C); experiment: EMSA (native PAGE); settings: 1 mM Mg2+, no ternary complex; Native PAGE: 50 mM HEPES pH 7.5, 100 mM NaCl, 1 mM MgCl2, 1 mM DTT, 10% glycerol, on ice 30 min; FCS: 20 mM Tris-HCl pH 7.5, 50 mM NaCl, 0.3 mg/mL BSA, 2 mM DTT; recombinant protein

Row | Sequence | binding result ([1]; partial ability retained) | binding result [2] | binding result [3] | binding result [4] | binding result [1] | binding result [5]
1 | CAGAGTTAATCACAACGGTTCTCGATCATCAAAGAAAAACAAGCTGTGCG (double strand) [50 bp nonspecific DNA] | binds more weakly | – | – | – | – | –
2 | CAGAGTTAATCAGAACGGTGACAATGTCACAAAGAAAAAGAACCTGTGCG (double strand) [50 bp matS DNA] | – | no binding | no binding | no binding | binds more weakly | no binding

From article PMC8523169
